Experimental data reported in the supplement of paper PMC10849652.
The other results are listed elsewhere or left out.

Amino acid sequences for entries named in this document (tags omitted). A change or cut given only in a name is not applied to a line headed by its entry.
UniProt Q9H6R4: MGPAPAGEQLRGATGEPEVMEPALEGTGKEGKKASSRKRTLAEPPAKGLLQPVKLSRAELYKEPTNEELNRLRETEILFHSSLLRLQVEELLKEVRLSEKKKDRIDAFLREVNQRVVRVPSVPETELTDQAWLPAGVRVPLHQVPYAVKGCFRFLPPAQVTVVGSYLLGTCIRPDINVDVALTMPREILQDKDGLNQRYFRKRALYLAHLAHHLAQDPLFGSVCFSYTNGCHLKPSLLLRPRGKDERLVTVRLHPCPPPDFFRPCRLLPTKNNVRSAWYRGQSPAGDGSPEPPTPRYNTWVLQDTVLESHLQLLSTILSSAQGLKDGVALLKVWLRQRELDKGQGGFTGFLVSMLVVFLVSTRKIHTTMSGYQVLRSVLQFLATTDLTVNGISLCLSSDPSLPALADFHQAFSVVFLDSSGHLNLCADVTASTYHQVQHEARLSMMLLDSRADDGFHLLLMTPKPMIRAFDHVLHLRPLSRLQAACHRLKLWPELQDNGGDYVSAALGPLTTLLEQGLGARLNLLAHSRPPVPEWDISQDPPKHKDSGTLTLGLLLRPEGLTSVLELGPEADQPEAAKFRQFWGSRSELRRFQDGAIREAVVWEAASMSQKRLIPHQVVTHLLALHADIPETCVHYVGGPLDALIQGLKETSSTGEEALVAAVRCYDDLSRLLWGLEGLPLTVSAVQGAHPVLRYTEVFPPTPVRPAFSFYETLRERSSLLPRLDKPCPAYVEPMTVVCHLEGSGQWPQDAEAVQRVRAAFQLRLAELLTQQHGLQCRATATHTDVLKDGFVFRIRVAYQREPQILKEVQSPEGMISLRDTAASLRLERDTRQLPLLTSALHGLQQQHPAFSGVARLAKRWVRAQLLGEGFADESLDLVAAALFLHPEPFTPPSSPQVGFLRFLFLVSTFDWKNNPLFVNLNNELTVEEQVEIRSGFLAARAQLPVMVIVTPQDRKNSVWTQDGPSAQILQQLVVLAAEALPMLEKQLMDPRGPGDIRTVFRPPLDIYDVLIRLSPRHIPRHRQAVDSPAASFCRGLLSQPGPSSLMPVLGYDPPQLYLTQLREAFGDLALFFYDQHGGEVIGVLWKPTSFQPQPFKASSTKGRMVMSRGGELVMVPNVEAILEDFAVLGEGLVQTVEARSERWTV
UniProt Q5SY16: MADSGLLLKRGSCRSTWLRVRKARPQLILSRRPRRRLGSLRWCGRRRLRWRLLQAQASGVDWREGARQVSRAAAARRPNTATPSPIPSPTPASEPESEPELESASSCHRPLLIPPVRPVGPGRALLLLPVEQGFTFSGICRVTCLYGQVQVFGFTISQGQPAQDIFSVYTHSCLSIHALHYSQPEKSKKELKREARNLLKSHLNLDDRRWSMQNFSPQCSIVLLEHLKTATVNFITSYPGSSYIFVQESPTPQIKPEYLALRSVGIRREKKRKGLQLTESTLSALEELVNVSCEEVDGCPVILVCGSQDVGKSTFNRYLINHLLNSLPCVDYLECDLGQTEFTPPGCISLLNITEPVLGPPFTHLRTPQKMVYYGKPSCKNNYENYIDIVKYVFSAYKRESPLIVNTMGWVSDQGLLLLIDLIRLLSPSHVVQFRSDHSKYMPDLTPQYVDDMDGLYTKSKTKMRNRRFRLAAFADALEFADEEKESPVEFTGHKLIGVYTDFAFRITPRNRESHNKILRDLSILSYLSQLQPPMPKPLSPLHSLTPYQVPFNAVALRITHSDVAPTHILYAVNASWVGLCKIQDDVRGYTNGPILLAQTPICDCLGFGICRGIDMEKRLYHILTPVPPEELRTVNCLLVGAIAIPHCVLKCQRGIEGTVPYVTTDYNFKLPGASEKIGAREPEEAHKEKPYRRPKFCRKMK
UniProt P57740: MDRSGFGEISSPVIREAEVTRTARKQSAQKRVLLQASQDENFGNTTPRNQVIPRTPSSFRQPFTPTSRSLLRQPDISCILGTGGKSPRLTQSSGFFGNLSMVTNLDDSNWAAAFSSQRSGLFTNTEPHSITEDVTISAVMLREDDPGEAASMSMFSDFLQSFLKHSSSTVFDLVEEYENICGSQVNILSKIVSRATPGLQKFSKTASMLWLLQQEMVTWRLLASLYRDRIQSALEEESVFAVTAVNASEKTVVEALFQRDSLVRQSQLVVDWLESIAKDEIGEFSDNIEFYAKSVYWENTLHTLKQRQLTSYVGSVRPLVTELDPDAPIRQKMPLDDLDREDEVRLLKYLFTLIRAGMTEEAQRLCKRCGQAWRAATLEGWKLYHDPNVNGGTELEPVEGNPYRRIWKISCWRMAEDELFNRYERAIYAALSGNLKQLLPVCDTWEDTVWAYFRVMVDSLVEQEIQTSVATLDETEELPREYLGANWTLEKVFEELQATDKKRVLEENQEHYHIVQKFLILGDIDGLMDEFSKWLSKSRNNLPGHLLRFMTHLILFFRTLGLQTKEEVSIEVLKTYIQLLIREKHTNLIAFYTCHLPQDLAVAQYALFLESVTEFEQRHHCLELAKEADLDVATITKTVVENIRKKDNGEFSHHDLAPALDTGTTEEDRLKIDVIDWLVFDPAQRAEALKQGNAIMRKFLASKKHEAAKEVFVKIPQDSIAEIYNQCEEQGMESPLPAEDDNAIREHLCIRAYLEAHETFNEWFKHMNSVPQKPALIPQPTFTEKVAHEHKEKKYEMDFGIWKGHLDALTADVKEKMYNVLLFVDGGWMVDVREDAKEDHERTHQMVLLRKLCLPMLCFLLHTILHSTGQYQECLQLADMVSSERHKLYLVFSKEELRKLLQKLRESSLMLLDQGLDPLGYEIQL
UniProt Q9HBL8: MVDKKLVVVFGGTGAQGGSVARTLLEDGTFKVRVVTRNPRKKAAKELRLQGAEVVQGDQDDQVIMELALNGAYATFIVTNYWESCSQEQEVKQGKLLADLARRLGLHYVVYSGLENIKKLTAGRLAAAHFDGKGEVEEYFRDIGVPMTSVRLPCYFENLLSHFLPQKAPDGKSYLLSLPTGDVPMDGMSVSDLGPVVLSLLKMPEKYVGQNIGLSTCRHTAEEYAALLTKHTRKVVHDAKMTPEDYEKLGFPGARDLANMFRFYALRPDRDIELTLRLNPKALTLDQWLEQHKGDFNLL

Columns and labels:
Test in all cases: log2 fold change, soluble protein after heating vs DMSO (PISA); higher = thermal stabilisation; K562 lysate, 10 uM; active = over 0.2 and 3.5 SD of the protein, either way, in both replicates (recomputed)
lapatinib = compound: CS(=O)(=O)CCNCc1ccc(-c2ccc3ncnc(Nc4ccc(OCc5cccc(F)c5)c(Cl)c4)c3c2)o1 [lapatinib]
Summary of the method: (§1)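 The values are log-two fold changes in thermal stability compared with solvent controls and come from duplicates. They were obtained by TMTpro 16plex LC-MS/MS, with channel sums equalised, on the supernatant after 21,000xg for 90 min. That supernatant came from crude K562 extract at 1 mg/mL protein treated with 10 μM compound for 30 min, heated for 3 min across 48°C-58°C, pooled and brought to 0.5% NP-40 at 4°C.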

pictilisib = compound: CS(=O)(=O)N1CCN(Cc2cc3nc(-c4cccc5[nH]ncc45)nc(N4CCOCC4)c3s2)CC1 [pictilisib]
Summary of the method: as §1

crizotinib = compound: C[C@@H](Oc1cc(-c2cnn(C3CCNCC3)c2)cnc1N)c1c(Cl)ccc(F)c1Cl [crizotinib]
Summary of the method: as §1

[1] = compound: C[C@H](C1=CC=C(C=C1)C(=O)NC2=C3C=CNC3=NC=C2)N
Summary of the method: as §1

duvelisib = compound: C[C@H](Nc1ncnc2nc[nH]c12)c1cc2cccc(Cl)c2c(=O)n1-c1ccccc1 [duvelisib]
Summary of the method: as §1

gandotinib = compound: Cc1cc(Nc2cc(CN3CCOCC3)c3nc(C)c(Cc4ccc(Cl)cc4F)n3n2)n[nH]1 [gandotinib]
Summary of the method: as §1

tozasertib = compound: Cc1cc(Nc2cc(N3CCN(C)CC3)nc(Sc3ccc(NC(=O)C4CC4)cc3)n2)n[nH]1 [tozasertib]
Summary of the method: as §1

doramapimod = compound: Cc1ccc(-n2nc(C(C)(C)C)cc2NC(=O)Nc2ccc(OCCN3CCOCC3)c3ccccc23)cc1 [doramapimod]
Summary of the method: as §1

bafetinib = compound: Cc1ccc(NC(=O)c2ccc(CN3CC[C@H](N(C)C)C3)c(C(F)(F)F)c2)cc1Nc1nccc(-c2cncnc2)n1 [bafetinib]
Summary of the method: as §1

[2] = compound: Cc1cccc(CC(=O)N2CCc3c2ccc(-c2cn(C)c4ncnc(N)c24)c3F)n1
Summary of the method: as §1

nilotinib = compound: Cc1cn(-c2cc(NC(=O)c3ccc(C)c(Nc4nccc(-c5cccnc5)n4)c3)cc(C(F)(F)F)c2)cn1 [nilotinib]
Summary of the method: as §1

[3] = compound: Cc1nc(Nc2n[nH]c3c2CN(C(=O)N[C@H](CN(C)C)c2ccccc2)C3(C)C)c2sccc2n1
Summary of the method: as §1

dasatinib = compound: Cc1nc(Nc2ncc(C(=O)Nc3c(C)cccc3Cl)s2)cc(N2CCN(CCO)CC2)n1 [dasatinib]
Summary of the method: as §1

[4] = compound: Cc1ncc(-c2ccnc(Nc3ccc(S(C)(=O)=O)cc3)n2)n1C(C)C
Summary of the method: as §1

[5] = compound: Cn1cc(-c2ccc3c(c2)CCN3C(=O)Cc2cccc(C(F)(F)F)c2)c2c(N)ncnc21
Summary of the method: as §1

quisinostat = compound: Cn1cc(CNCC2CCN(c3ncc(C(=O)NO)cn3)CC2)c2ccccc21 [quisinostat]
Summary of the method: as §1

tipifarnib = compound: Cn1cncc1[C@@](N)(c1ccc(Cl)cc1)c1ccc2c(c1)c(-c1cccc(Cl)c1)cc(=O)n2C [tipifarnib]
Summary of the method: as §1

[6] = compound: NC(=O)Nc1cc(-c2cccc(F)c2)sc1C(=O)N[C@H]1CCCNC1
Summary of the method: as §1

[7] = compound: NC(=O)c1cnc(N[C@@H]2CCCC[C@@H]2N)nc1Nc1cccc(-n2nccn2)c1
Summary of the method: as §1

[8] = compound: NC1(c2ccc(-c3nc4ccn5c(=O)[nH]nc5c4cc3-c3ccccc3)cc2)CCC1
Summary of the method: as §1

Target | log2 fold change (lapatinib) | log2 fold change (pictilisib) | log2 fold change (crizotinib) | log2 fold change [1] | log2 fold change (duvelisib) | log2 fold change (gandotinib) | log2 fold change (tozasertib) | log2 fold change (doramapimod) | log2 fold change (bafetinib) | log2 fold change [2] | log2 fold change (nilotinib) | log2 fold change [3] | log2 fold change (dasatinib) | log2 fold change [4] | log2 fold change [5] | log2 fold change (quisinostat) | log2 fold change (tipifarnib) | log2 fold change [6] | log2 fold change [7] | log2 fold change [8]
NOL6 (UniProt Q9H6R4) | inactive: -0.018 | inactive: -0.027 | inactive: -0.009 | inactive: 0.011 | inactive: 0.012 | inactive: -0.011 | inactive: -0.028 | inactive: 0.012 | inactive: -0.051 | inactive: 0.036 | inactive: 0.015 | inactive: 0.007 | inactive: 0.005 | inactive: 0.053 | inactive: 0 | inactive: -0.02 | inactive: -0.065 | inactive: 0.075 | inactive: 0.05 | inactive: -0.022
NOL9 (UniProt Q5SY16) | inactive: 0.01 | inactive: 0.025 | inactive: -0.013 | inactive: 0.031 | inactive: 0.053 | inactive: -0.099 | inactive: 0.056 | inactive: -0.014 | inactive: -0.082 | inactive: -0.052 | inactive: -0.042 | inactive: 0.035 | inactive: -0.029 | inactive: 0.058 | inactive: 0.079 | inactive: -0.057 | inactive: -0.067 | inactive: 0.03 | inactive: 0.03 | inactive: -0.012
NUP107 (UniProt P57740) | inactive: 0.019 | inactive: -0.064 | inactive: -0.048 | inactive: -0.046 | inactive: -0.012 | inactive: -0.028 | inactive: 0.003 | inactive: 0.038 | inactive: -0.038 | inactive: 0.095 | inactive: 0 | inactive: -0.013 | inactive: -0.057 | inactive: 0.043 | inactive: 0.01 | inactive: -0.063 | inactive: -0.087 | inactive: 0.041 | inactive: 0.01 | inactive: -0.024
NMRAL1 (UniProt Q9HBL8) | inactive: -0.003 | inactive: 0.105 | inactive: -0.017 | active: 0.695 | inactive: 0.08 | inactive: -0.01 | inactive: -0.051 | inactive: 0.036 | inactive: 0.005 | inactive: 0.011 | inactive: -0.017 | inactive: 0.004 | inactive: -0.035 | inactive: -0.005 | inactive: -0.039 | inactive: 0.025 | inactive: 0.01 | inactive: -0.021 | inactive: 0.012 | inactive: 0.045
